Test results: patent publication US12630803B2, “Method of increasing proliferation of pancreatic beta cells, treatment method, and composition” (ICAHN SCHOOL OF MEDICINE AT MOUNT SINAI, priority 2018, dated 2026)
Entries after “also recorded” stand apart in the source; their conditions may differ. For at least one compound, name, drawing or mass did not settle the structure.

Test system: human beta cells
Assay: Ki67-insulin immunolabeling of dispersed human islet cells (beta cell proliferation)

SMILES	ability to replace or mimic GLP1 in harmine-GLP1 proliferation (agent administered together with harmine, FIGS. 5A-5C, 5E, 5F)	effect on human beta cell proliferation, agent administered alone (agent alone)	synergy of GLP1R agonist with harmine on beta cell proliferation (in combination with harmine, FIG. 1G)
C=C[C@@]1(C)CC(=O)[C@]2(O)[C@@]3(C)[C@@H](O)CCC(C)(C)[C@@H]3[C@H](O)[C@H](OC(C)=O)[C@@]2(C)O1 [forskolin]	mimicked; also recorded: can replace GLP1	no effect on proliferation	
CCCCCCCCCCCCCCCC(=O)N[C@@H](CCC(=O)NCCCC[C@H](NC(=O)[C@H](C)NC(=O)[C@H](C)NC(=O)[C@H](CCC(N)=O)NC(=O)CNC(=O)[C@H](CCC(=O)O)NC(=O)[C@H](CC(C)C)NC(=O)[C@H](Cc1ccc(O)cc1)NC(=O)[C@H](CO)NC(=O)[C@H](CO)NC(=O)[C@@H](NC(=O)[C@H](CC(=O)O)NC(=O)[C@H](CO)NC(=O)[C@@H](NC(=O)[C@H](Cc1ccccc1)NC(=O)[C@@H](NC(=O)CNC(=O)[C@H](CCC(=O)O)NC(=O)[C@H](C)NC(=O)[C@@H](N)Cc1cnc[nH]1)[C@@H](C)O)[C@@H](C)O)C(C)C)C(=O)N[C@@H](CCC(=O)O)C(=O)N[C@@H](Cc1ccccc1)C(=O)N[C@H](C(=O)N[C@@H](C)C(=O)N[C@@H](Cc1c[nH]c2ccccc12)C(=O)N[C@@H](CC(C)C)C(=O)N[C@H](C(=O)N[C@@H](CCCNC(=N)N)C(=O)NCC(=O)N[C@@H](CCCNC(=N)N)C(=O)NCC(=O)O)C(C)C)[C@@H](C)CC)C(=O)O [liraglutide]			synergy was also apparent
